{
  "source": "PubChem BioAssay AID180",
  "about": "(DTP/NCI, 2004)",
  "tested_on": "BDF1 mice, Adenocarcinoma 755 s.c., tumor weight T/C",
  "test": "NCI In Vivo Anticancer Drug Screen. Data for tumor model Adenocarcinoma 755 (subcutaneous) in B6D2F1 (BDF1) mice",
  "conditions": "T/C endpoint: mean tumor weight, schedule: Q01DX011 (ip), evaluation day not shown, higher T/C = larger tumour",
  "procedure": "The antitumor activity of compounds was measured in mice bearing transplantable tumors. Survival or tumor size were measured and the results are expressed as the measurement made in the treated group (T) divided by the measurement made in the vehicle treated control group (C). The tumor model used in this assay is Adenocarcinoma 755 (subcutaneous) in B6D2F1 (BDF1) mice",
  "key": {"[1]": {"conditions": "dose: 7.5 mg/kg/injection, vehicle: carboxymethylcellulose (CMC)"}, "[2]": {"conditions": "dose: 1.5 mg/kg/injection, vehicle: carboxymethylcellulose (CMC)"}, "[3]": {"conditions": "dose: 3.0 mg/kg/injection, vehicle: carboxymethylcellulose (CMC)"}},
  "note": "The list does not hold the whole screen: it covers a few groups of compounds. Other doses and runs of a compound may be missing. T/C is the treated group as % of the vehicle group. Some T/C values are marked as having no survivor count here; that says nothing about deaths at the dose. Schedule codes are those of the source, taken here to give the interval after Q, in days (D) or hours (H), and the number of doses after X. Some doses were run more than once; the results are listed from low to high.",
  "data": [
    {"smiles": "O[C@@H](CNCCCl)[C@@H](O)CNCCCl", "values": [
      {"measurement": "T/C", "setting": "dose: 1.25 mg/kg/injection, vehicle: saline", "value": "57 % of control [survivor count not shown]"},
      {"measurement": "T/C", "setting": "dose: 2.5 mg/kg/injection, vehicle: saline", "value": "29 % of control [survivor count not shown]"},
      {"measurement": "T/C", "setting": "dose: 5.0 mg/kg/injection, vehicle: saline", "value": "7 % of control [survivor count not shown]"},
      {"measurement": "T/C", "setting": "dose: 10.0 mg/kg/injection, vehicle: saline", "value": "2 % of control [survivor count not shown]"}
    ]},
    {"smiles": "NC1CCCCC1.NP(=O)(O)N(CCCl)CCCl", "values": [
      {"measurement": "T/C", "setting": "dose: 8.0 mg/kg/injection, vehicle: saline", "value": "76 % of control [survivor count not shown]"},
      {"measurement": "T/C", "setting": "dose: 16.0 mg/kg/injection, vehicle: saline", "value": "69 % of control [survivor count not shown]"},
      {"measurement": "T/C", "setting": "dose: 32.0 mg/kg/injection, vehicle: saline", "value": "19 % of control [survivor count not shown]"}
    ]},
    {"smiles": "N#CC(C#N)=Cc1ccc(N(CCCl)CCCl)cc1", "values": [
      {"measurement": "T/C", "setting": "dose: 56.0 mg/kg/injection, vehicle: carboxymethylcellulose (CMC)", "value": "48 % of control [survivor count not shown]"},
      {"measurement": "T/C", "setting": "dose: 112.0 mg/kg/injection, vehicle: carboxymethylcellulose (CMC)", "value": "27 % of control [survivor count not shown]"},
      {"measurement": "T/C", "setting": "dose: 225.0 mg/kg/injection, vehicle: carboxymethylcellulose (CMC)", "value": "17 % of control [survivor count not shown]"}
    ]},
    {"smiles": "Cn1c(=O)[nH]cc(N(CCCl)CCCl)c1=O", "values": [
      {"measurement": "T/C", "setting": "dose: 0.44 mg/kg/injection, vehicle: methylcellulose (MC)", "value": "51 [survivor count not shown] and 64 % of control [survivor count not shown]"},
      {"measurement": "T/C", "setting": "dose: 0.88 mg/kg/injection, vehicle: methylcellulose (MC)", "value": "32 [survivor count not shown] and 68 % of control [survivor count not shown]"},
      {"measurement": "T/C", "setting": "dose: 1.75 mg/kg/injection, vehicle: methylcellulose (MC)", "value": "14 [survivor count not shown] and 20 % of control [survivor count not shown]"}
    ]},
    {"smiles": "COc1cccc(N(CCCl)CCCl)c1OC", "values": [
      {"measurement": "T/C", "setting": "[1]", "value": "82 % of control [survivor count not shown]"},
      {"measurement": "T/C", "setting": "dose: 15.0 mg/kg/injection, vehicle: carboxymethylcellulose (CMC)", "value": "125 % of control [survivor count not shown]"},
      {"measurement": "T/C", "setting": "dose: 30.0 mg/kg/injection, vehicle: carboxymethylcellulose (CMC)", "value": "105 % of control [survivor count not shown]"},
      {"measurement": "T/C", "setting": "dose: 60.0 mg/kg/injection, vehicle: carboxymethylcellulose (CMC)", "value": "58 % of control [survivor count not shown]"}
    ]},
    {"smiles": "O=C(O)C(=O)Cc1ccc(N(CCCl)CCCl)cc1", "values": [
      {"measurement": "T/C", "setting": "[2]", "value": "121 % of control [survivor count not shown]"},
      {"measurement": "T/C", "setting": "[3]", "value": "105 % of control [survivor count not shown]"},
      {"measurement": "T/C", "setting": "dose: 6.0 mg/kg/injection, vehicle: carboxymethylcellulose (CMC)", "value": "70 % of control [survivor count not shown]"},
      {"measurement": "T/C", "setting": "dose: 12.0 mg/kg/injection, vehicle: carboxymethylcellulose (CMC)", "value": "20 % of control [survivor count not shown]"}
    ]},
    {"smiles": "NC(Cc1cccc(N(CCCl)CCCl)c1)C(=O)O", "note": "(configuration not stated)", "values": [
      {"measurement": "T/C", "setting": "dose: 0.15 mg/kg/injection, vehicle: carboxymethylcellulose (CMC)", "value": "16 % of control [survivor count not shown]"},
      {"measurement": "T/C", "setting": "dose: 0.6 mg/kg/injection, vehicle: carboxymethylcellulose (CMC)", "value": "9 % of control [survivor count not shown]"},
      {"measurement": "T/C", "setting": "dose: 0.62 mg/kg/injection, vehicle: carboxymethylcellulose (CMC)", "value": "46 % of control [survivor count not shown]"},
      {"measurement": "T/C", "setting": "dose: 1.25 mg/kg/injection, vehicle: carboxymethylcellulose (CMC)", "value": "5 [survivor count not shown] and 8 % of control [survivor count not shown]"},
      {"measurement": "T/C", "setting": "dose: 2.5 mg/kg/injection, vehicle: carboxymethylcellulose (CMC)", "value": "4 [survivor count not shown] and 7 % of control [survivor count not shown]"},
      {"measurement": "T/C", "setting": "dose: 5.0 mg/kg/injection, vehicle: carboxymethylcellulose (CMC)", "value": "3 % of control [survivor count not shown]"}
    ]},
    {"smiles": "CCCCOc1cccc(N(CCCl)CCCl)c1", "values": [
      {"measurement": "T/C", "setting": "dose: 75.0 mg/kg/injection, vehicle: methylcellulose (MC)", "value": "54 [survivor count not shown] and 79 % of control [survivor count not shown]"},
      {"measurement": "T/C", "setting": "dose: 150.0 mg/kg/injection, vehicle: methylcellulose (MC)", "value": "45 [survivor count not shown] and 90 % of control [survivor count not shown]"},
      {"measurement": "T/C", "setting": "dose: 300.0 mg/kg/injection, vehicle: methylcellulose (MC)", "value": "17 [survivor count not shown] and 68 % of control [survivor count not shown]"},
      {"measurement": "T/C", "setting": "dose: 600.0 mg/kg/injection, vehicle: methylcellulose (MC)", "value": "85 % of control [survivor count not shown]"}
    ]},
    {"smiles": "CC(C(=O)O)N(CCCl)CCCl", "note": "(configuration not stated)", "values": [
      {"measurement": "T/C", "setting": "dose: 0.44 mg/kg/injection, vehicle: other", "value": "45 % of control [survivor count not shown]"},
      {"measurement": "T/C", "setting": "dose: 0.53 mg/kg/injection, vehicle: carboxymethylcellulose (CMC)", "value": "85 % of control [survivor count not shown]"},
      {"measurement": "T/C", "setting": "dose: 0.75 mg/kg/injection, vehicle: carboxymethylcellulose (CMC)", "value": "83 % of control [survivor count not shown]"},
      {"measurement": "T/C", "setting": "dose: 0.88 mg/kg/injection, vehicle: other", "value": "52 % of control [survivor count not shown]"},
      {"measurement": "T/C", "setting": "dose: 0.9 mg/kg/injection, vehicle: carboxymethylcellulose (CMC)", "value": "42 [survivor count not shown] and 78 % of control [survivor count not shown]"},
      {"measurement": "T/C", "setting": "dose: 1.05 mg/kg/injection, vehicle: carboxymethylcellulose (CMC)", "value": "92 % of control [survivor count not shown]"},
      {"measurement": "T/C", "setting": "[2]", "value": "124 % of control [survivor count not shown]"},
      {"measurement": "T/C", "setting": "dose: 1.75 mg/kg/injection, vehicle: other", "value": "48 % of control [survivor count not shown]"},
      {"measurement": "T/C", "setting": "dose: 1.8 mg/kg/injection, vehicle: carboxymethylcellulose (CMC)", "value": "85 [survivor count not shown] and 90 % of control [survivor count not shown]"},
      {"measurement": "T/C", "setting": "dose: 2.1 mg/kg/injection, vehicle: carboxymethylcellulose (CMC)", "value": "85 % of control [survivor count not shown]"},
      {"measurement": "T/C", "setting": "[3]", "value": "34 % of control [survivor count not shown]"},
      {"measurement": "T/C", "setting": "dose: 3.5 mg/kg/injection, vehicle: other", "value": "41 % of control [survivor count not shown]"},
      {"measurement": "T/C", "setting": "dose: 3.6 mg/kg/injection, vehicle: carboxymethylcellulose (CMC)", "value": "67 [survivor count not shown] and 73 % of control [survivor count not shown]"},
      {"measurement": "T/C", "setting": "dose: 4.2 mg/kg/injection, vehicle: carboxymethylcellulose (CMC)", "value": "88 % of control [survivor count not shown]"},
      {"measurement": "T/C", "setting": "dose: 7.2 mg/kg/injection, vehicle: carboxymethylcellulose (CMC)", "value": "79 [survivor count not shown] and 125 % of control [survivor count not shown]"},
      {"measurement": "T/C", "setting": "dose: 912.0 micrograms/kg/injection, vehicle: carboxymethylcellulose (CMC)", "value": "66 % of control [survivor count not shown]"},
      {"measurement": "T/C", "setting": "dose: 1825.0 micrograms/kg/injection, vehicle: carboxymethylcellulose (CMC)", "value": "89 % of control [survivor count not shown]"},
      {"measurement": "T/C", "setting": "dose: 3650.0 micrograms/kg/injection, vehicle: carboxymethylcellulose (CMC)", "value": "62 % of control [survivor count not shown]"},
      {"measurement": "T/C", "setting": "dose: 7300.0 micrograms/kg/injection, vehicle: carboxymethylcellulose (CMC)", "value": "67 % of control [survivor count not shown]"}
    ]},
    {"smiles": "Nc1ncnc2c1ncn2CCN(CCCl)CCCl", "values": [
      {"measurement": "T/C", "setting": "dose: 3.7 mg/kg/injection, vehicle: carboxymethylcellulose (CMC)", "value": "60 % of control [survivor count not shown]"},
      {"measurement": "T/C", "setting": "[1]", "value": "21 % of control [survivor count not shown]"}
    ]}
  ]
}
